Assay results: patent US20150232546A1 (THROMBOGENICS, published 2015)
Results are given in words; binding and its absence hold for the method and conditions named. Some results given as binding are weak or reduced against the parent protein; the word gives no strength.

Chains of the proteins cited; added tags and fusions are not shown. Residues count along the entry.
UniProt Q9NRA1, residues 23-345: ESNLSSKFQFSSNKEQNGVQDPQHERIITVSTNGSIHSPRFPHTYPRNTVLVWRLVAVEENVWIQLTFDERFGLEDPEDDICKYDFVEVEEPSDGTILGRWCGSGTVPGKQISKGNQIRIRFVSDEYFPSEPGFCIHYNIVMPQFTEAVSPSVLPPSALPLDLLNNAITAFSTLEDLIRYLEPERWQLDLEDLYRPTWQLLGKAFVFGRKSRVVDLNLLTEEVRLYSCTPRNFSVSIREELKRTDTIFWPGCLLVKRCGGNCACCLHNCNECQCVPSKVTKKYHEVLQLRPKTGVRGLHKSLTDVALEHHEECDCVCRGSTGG

Tests used:
[1] = molecular target: full-length human PDGF-C (Example 6) (human) (UniProt Q9NRA1); test: ELISA
[2] = molecular target: T1, human PDGF-C peptide no. 1 (human); test: peptide ELISA
T1 sequence (peptide, N-terminally biotinylated): ESNLSSKFQFSSNKE

[3] = molecular target: T2, human PDGF-C peptide no. 10 (human); test: peptide ELISA
T2 sequence (peptide, N-terminally biotinylated): PRNTVLVWRLVAVEE

[4] = molecular target: T3, human PDGF-C peptide no. 11 (human); test: peptide ELISA
T3 sequence (peptide, N-terminally biotinylated): LVWRLVAVEENVWIQ

[5] = molecular target: T4, human PDGF-C peptide no. 12 (human); test: peptide ELISA
T4 sequence (peptide, N-terminally biotinylated): VAVEENVWIQLTFDE

[6] = molecular target: T5, human PDGF-C peptide no. 13 (human); test: peptide ELISA
T5 sequence (peptide, N-terminally biotinylated): NVWIQLTFDERFGLE

[7] = molecular target: T6, human PDGF-C peptide no. 14 (human); test: peptide ELISA
T6 sequence (peptide, N-terminally biotinylated): LTFDERFGLEDPEDD

[8] = molecular target: T7, human PDGF-C peptide no. 15 (human); test: peptide ELISA
T7 sequence (peptide, N-terminally biotinylated): RFGLEDPEDDICKYD

[9] = molecular target: T8, human PDGF-C peptide no. 16 (human); test: peptide ELISA
T8 sequence (peptide, N-terminally biotinylated): DPEDDICKYDFVEVE

[10] = molecular target: T9, human PDGF-C peptide no. 17 (human); test: peptide ELISA
T9 sequence (peptide, N-terminally biotinylated): ICKYDFVEVEEPSDG

[11] = molecular target: T10, human PDGF-C peptide no. 18 (human); test: peptide ELISA
T10 sequence (peptide, N-terminally biotinylated): FVEVEEPSDGTILGR

[12] = molecular target: T11, human PDGF-C peptide no. 19 (human); test: peptide ELISA
T11 sequence (peptide, N-terminally biotinylated): EPSDGTILGRWCGSG

[13] = molecular target: T12, human PDGF-C peptide no. 2 (human); test: peptide ELISA
T12 sequence (peptide, N-terminally biotinylated): SKFQFSSNKEQNGVQ

[14] = molecular target: T13, human PDGF-C peptide no. 20 (human); test: peptide ELISA
T13 sequence (peptide, N-terminally biotinylated): TILGRWCGSGTVPGK

[15] = molecular target: T14, human PDGF-C peptide no. 21 (human); test: peptide ELISA
T14 sequence (peptide, N-terminally biotinylated): WCGSGTVPGKQISKG

[16] = molecular target: T15, human PDGF-C peptide no. 22 (human); test: peptide ELISA
T15 sequence (peptide, N-terminally biotinylated): TVPGKQISKGNQIRI

[17] = molecular target: T16, human PDGF-C peptide no. 23 (human); test: peptide ELISA
T16 sequence (peptide, N-terminally biotinylated): QISKGNQIRIRFVSD

[18] = molecular target: T17, human PDGF-C peptide no. 24 (human); test: peptide ELISA
T17 sequence (peptide, N-terminally biotinylated): NQIRIRFVSDEYFPS

[19] = molecular target: T18, human PDGF-C peptide no. 25 (human); test: peptide ELISA
T18 sequence (peptide, N-terminally biotinylated): RFVSDEYFPSEPGFC

[20] = molecular target: T19, human PDGF-C peptide no. 26 (human); test: peptide ELISA
T19 sequence (peptide, N-terminally biotinylated): EYFPSEPGFCIHYNI

[21] = molecular target: T20, human PDGF-C peptide no. 28 (human); test: peptide ELISA
T20 sequence (peptide, N-terminally biotinylated): IHYNIVMPQFTEAVS

[22] = molecular target: T21, human PDGF-C peptide no. 29 (human); test: peptide ELISA
T21 sequence (peptide, N-terminally biotinylated): VMPQFTEAVSPSVLP

[23] = molecular target: T22, human PDGF-C peptide no. 3 (human); test: peptide ELISA
T22 sequence (peptide, N-terminally biotinylated): SSNKEQNGVQDPQHE

[24] = molecular target: T23, human PDGF-C peptide no. 30 (human); test: peptide ELISA
T23 sequence (peptide, N-terminally biotinylated): TEAVSPSVLPPSALP

[25] = molecular target: T24, human PDGF-C peptide no. 31 (human); test: peptide ELISA
T24 sequence (peptide, N-terminally biotinylated): PSVLPPSALPLDLLN

[26] = molecular target: T25, human PDGF-C peptide no. 32 (human); test: peptide ELISA
T25 sequence (peptide, N-terminally biotinylated): PSALPLDLLNNAITA

[27] = molecular target: T26, human PDGF-C peptide no. 33 (human); test: peptide ELISA
T26 sequence (peptide, N-terminally biotinylated): LDLLNNAITAFSTLE

[28] = molecular target: T27, human PDGF-C peptide no. 34 (human); test: peptide ELISA
T27 sequence (peptide, N-terminally biotinylated): NAITAFSTLEDLIRY

[29] = molecular target: T28, human PDGF-C peptide no. 35 (human); test: peptide ELISA
T28 sequence (peptide, N-terminally biotinylated): FSTLEDLIRYLEPER

[30] = molecular target: T29, human PDGF-C peptide no. 36 (human); test: peptide ELISA
T29 sequence (peptide, N-terminally biotinylated): DLIRYLEPERWQLDL

[31] = molecular target: T30, human PDGF-C peptide no. 37 (human); test: peptide ELISA
T30 sequence (peptide, N-terminally biotinylated): LEPERWQLDLEDLYR

[32] = molecular target: T31, human PDGF-C peptide no. 38 (human); test: peptide ELISA
T31 sequence (peptide, N-terminally biotinylated): WQLDLEDLYRPTWQL

[33] = molecular target: T32, human PDGF-C peptide no. 39 (human); test: peptide ELISA
T32 sequence (peptide, N-terminally biotinylated): EDLYRPTWQLLGKAF

[34] = molecular target: T33, human PDGF-C peptide no. 4 (human); test: peptide ELISA
T33 sequence (peptide, N-terminally biotinylated): QNGVQDPQHERIITV

[35] = molecular target: T34, human PDGF-C peptide no. 40 (human); test: peptide ELISA
T34 sequence (peptide, N-terminally biotinylated): PTWQLLGKAFVFGRK

[36] = molecular target: T35, human PDGF-C peptide no. 41 (human); test: peptide ELISA
T35 sequence (peptide, N-terminally biotinylated): LGKAFVFGRKSRVVD

[37] = molecular target: T36, human PDGF-C peptide no. 42 (human); test: peptide ELISA
T36 sequence (peptide, N-terminally biotinylated): VFGRKSRVVDLNLLT

[38] = molecular target: T37, human PDGF-C peptide no. 43 (human); test: peptide ELISA
T37 sequence (peptide, N-terminally biotinylated): SRVVDLNLLTEEVRL

[39] = molecular target: T38, human PDGF-C peptide no. 44 (human); test: peptide ELISA
T38 sequence (peptide, N-terminally biotinylated): LNLLTEEVRLYSCTP

[40] = molecular target: T39, human PDGF-C peptide no. 45 (human); test: peptide ELISA
T39 sequence (peptide, N-terminally biotinylated): EEVRLYSCTPRNFSV

[41] = molecular target: T40, human PDGF-C peptide no. 46 (human); test: peptide ELISA
T40 sequence (peptide, N-terminally biotinylated): YSCTPRNFSVSIREE

[42] = molecular target: T41, human PDGF-C peptide no. 47 (human); test: peptide ELISA
T41 sequence (peptide, N-terminally biotinylated): RNFSVSIREELKRTD

[43] = molecular target: T42, human PDGF-C peptide no. 48 (human); test: peptide ELISA
T42 sequence (peptide, N-terminally biotinylated): SIREELKRTDTIFWP

[44] = molecular target: T43, human PDGF-C peptide no. 49 (human); test: peptide ELISA
T43 sequence (peptide, N-terminally biotinylated): LKRTDTIFWPGCLLV

[45] = molecular target: T44, human PDGF-C peptide no. 5 (human); test: peptide ELISA
T44 sequence (peptide, N-terminally biotinylated): DPQHERIITVSTNGS

[46] = molecular target: T45, human PDGF-C peptide no. 50 (human); test: peptide ELISA
T45 sequence (peptide, N-terminally biotinylated): TIFWPGCLLVKRCGG

[47] = molecular target: T46, human PDGF-C peptide no. 51 (human); test: peptide ELISA
T46 sequence (peptide, N-terminally biotinylated): GCLLVKRCGGNCACC

[48] = molecular target: T47, human PDGF-C peptide no. 52 (human); test: peptide ELISA
T47 sequence (peptide, N-terminally biotinylated): KRCGGNCACCLHNCN

[49] = molecular target: T48, human PDGF-C peptide no. 53 (human); test: peptide ELISA
T48 sequence (peptide, N-terminally biotinylated): NCACCLHNCNECQCV

[50] = molecular target: T49, human PDGF-C peptide no. 54 (human); test: peptide ELISA
T49 sequence (peptide, N-terminally biotinylated): LHNCNECQCVPSKVT

[51] = molecular target: T50, human PDGF-C peptide no. 55 (human); test: peptide ELISA
T50 sequence (peptide, N-terminally biotinylated): ECQCVPSKVTKKYHE

[52] = molecular target: T51, human PDGF-C peptide no. 56 (human); test: peptide ELISA
T51 sequence (peptide, N-terminally biotinylated): PSKVTKKYHEVLQLR

[53] = molecular target: T52, human PDGF-C peptide no. 57 (human); test: peptide ELISA
T52 sequence (peptide, N-terminally biotinylated): KKYHEVLQLRPKTGV

[54] = molecular target: T53, human PDGF-C peptide no. 59 (human); test: peptide ELISA
T53 sequence (peptide, N-terminally biotinylated): PKTGVRGLHKSLTDV

[55] = molecular target: T54, human PDGF-C peptide no. 6 (human); test: peptide ELISA
T54 sequence (peptide, N-terminally biotinylated): RIITVSTNGSIHSPR

[56] = molecular target: T55, human PDGF-C peptide no. 60 (human); test: peptide ELISA
T55 sequence (peptide, N-terminally biotinylated): RGLHKSLTDVALEHH

[57] = molecular target: T56, human PDGF-C peptide no. 62 (human); test: peptide ELISA
T56 sequence (peptide, N-terminally biotinylated): ALEHHEECDCVCRGS

[58] = molecular target: T57, human PDGF-C peptide no. 63 (human); test: peptide ELISA
T57 sequence (peptide, N-terminally biotinylated): EECDCVCRGSTGG

[59] = molecular target: T58, human PDGF-C peptide no. 7 (human); test: peptide ELISA
T58 sequence (peptide, N-terminally biotinylated): STNGSIHSPRFPHTY

[60] = molecular target: T59, human PDGF-C peptide no. 8 (human); test: peptide ELISA
T59 sequence (peptide, N-terminally biotinylated): IHSPRFPHTYPRNTV

Measured: binding

B1: anti-PDGF-C antibody 5A2 (antibody, IgG2b, V domains shown)
VH: EVQLVESGGDLVKPGGSLKLSCAASGFTFSNYGMSWVRQTPDKRLEWVATIGSGGHYTYYPDSVKGRFTISRDSAKSTLYLQMSSLKSEDTAIYYCARQAPLWDCSDYWGQGTTLTVSS
VL: DVLMTQTPLSLPVSLGDQASISCRSNQSIVHSNGDTYLEWYLQKPGQSPKLLIYKVSNRFSGVPDRFSGSGSGTDFTLKISRVEAEDLGVYYCFQGSHVPPTFGGGTKLEIK
notes: Mouse monoclonal from hybridoma, IgG2b, kappa; also called mAb 5A2; hybridoma LMBP 9484CB
binds: [1]
no binding (tested: 1 µg/mL): [2] | [3] | [4] | [5] | [6] | [7] | [8] | [9] | [10] | [11] | [12] | [13] | [14] | [15] | [16] | [17] | [18] | [19] | [20] | [21] | [22] | [23] | [24] | [25] | [26] | [27] | [28] | [29] | [30] | [31] | [32] | [33] | [34] | [35] | [36] | [37] | [38] | [39] | [40] | [41] | [42] | [43] | [44] | [45] | [46] | [47] | [48] | [49] | [50] | [51] | [52] | [53] | [54] | [55] | [56] | [57] | [58] | [59] | [60]
